These results are taken from PMC8968858.

Chains of the proteins cited; added tags and fusions are not shown. Lines headed by an entry give the natural chain unless they say otherwise; changes in a name come on top. Residues count along the entry.
UniProt Q9ULX9: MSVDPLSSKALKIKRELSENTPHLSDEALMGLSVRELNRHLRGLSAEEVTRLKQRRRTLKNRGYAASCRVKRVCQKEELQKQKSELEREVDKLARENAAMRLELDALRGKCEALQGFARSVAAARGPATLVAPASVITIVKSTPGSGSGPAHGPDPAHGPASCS
UniProt Q02413, residues 50-1049: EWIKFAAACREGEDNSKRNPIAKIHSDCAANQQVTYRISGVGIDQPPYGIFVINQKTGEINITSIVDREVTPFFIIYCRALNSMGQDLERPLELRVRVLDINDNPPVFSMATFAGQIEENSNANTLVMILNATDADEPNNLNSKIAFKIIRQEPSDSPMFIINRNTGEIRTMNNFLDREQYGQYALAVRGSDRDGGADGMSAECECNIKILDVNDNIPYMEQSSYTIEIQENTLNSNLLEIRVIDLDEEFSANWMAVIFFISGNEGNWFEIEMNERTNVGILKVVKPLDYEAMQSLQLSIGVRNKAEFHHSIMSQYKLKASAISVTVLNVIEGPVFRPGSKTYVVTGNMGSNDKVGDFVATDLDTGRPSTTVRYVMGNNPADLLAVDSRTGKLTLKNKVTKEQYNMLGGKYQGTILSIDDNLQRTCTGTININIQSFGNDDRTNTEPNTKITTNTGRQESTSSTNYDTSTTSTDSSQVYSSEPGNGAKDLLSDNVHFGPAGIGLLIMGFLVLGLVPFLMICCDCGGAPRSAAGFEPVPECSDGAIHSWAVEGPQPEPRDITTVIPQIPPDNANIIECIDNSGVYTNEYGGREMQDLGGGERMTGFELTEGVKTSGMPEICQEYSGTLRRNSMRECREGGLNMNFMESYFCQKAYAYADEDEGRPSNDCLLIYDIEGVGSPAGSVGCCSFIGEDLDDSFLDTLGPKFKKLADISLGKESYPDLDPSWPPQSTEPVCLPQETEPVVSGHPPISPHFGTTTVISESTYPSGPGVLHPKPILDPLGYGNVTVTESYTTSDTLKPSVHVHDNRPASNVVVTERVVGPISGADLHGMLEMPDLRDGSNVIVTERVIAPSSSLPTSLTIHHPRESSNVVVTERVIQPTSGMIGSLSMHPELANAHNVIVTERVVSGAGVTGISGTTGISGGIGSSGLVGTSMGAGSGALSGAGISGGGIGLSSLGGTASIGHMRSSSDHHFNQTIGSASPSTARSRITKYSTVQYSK
UniProt P15924: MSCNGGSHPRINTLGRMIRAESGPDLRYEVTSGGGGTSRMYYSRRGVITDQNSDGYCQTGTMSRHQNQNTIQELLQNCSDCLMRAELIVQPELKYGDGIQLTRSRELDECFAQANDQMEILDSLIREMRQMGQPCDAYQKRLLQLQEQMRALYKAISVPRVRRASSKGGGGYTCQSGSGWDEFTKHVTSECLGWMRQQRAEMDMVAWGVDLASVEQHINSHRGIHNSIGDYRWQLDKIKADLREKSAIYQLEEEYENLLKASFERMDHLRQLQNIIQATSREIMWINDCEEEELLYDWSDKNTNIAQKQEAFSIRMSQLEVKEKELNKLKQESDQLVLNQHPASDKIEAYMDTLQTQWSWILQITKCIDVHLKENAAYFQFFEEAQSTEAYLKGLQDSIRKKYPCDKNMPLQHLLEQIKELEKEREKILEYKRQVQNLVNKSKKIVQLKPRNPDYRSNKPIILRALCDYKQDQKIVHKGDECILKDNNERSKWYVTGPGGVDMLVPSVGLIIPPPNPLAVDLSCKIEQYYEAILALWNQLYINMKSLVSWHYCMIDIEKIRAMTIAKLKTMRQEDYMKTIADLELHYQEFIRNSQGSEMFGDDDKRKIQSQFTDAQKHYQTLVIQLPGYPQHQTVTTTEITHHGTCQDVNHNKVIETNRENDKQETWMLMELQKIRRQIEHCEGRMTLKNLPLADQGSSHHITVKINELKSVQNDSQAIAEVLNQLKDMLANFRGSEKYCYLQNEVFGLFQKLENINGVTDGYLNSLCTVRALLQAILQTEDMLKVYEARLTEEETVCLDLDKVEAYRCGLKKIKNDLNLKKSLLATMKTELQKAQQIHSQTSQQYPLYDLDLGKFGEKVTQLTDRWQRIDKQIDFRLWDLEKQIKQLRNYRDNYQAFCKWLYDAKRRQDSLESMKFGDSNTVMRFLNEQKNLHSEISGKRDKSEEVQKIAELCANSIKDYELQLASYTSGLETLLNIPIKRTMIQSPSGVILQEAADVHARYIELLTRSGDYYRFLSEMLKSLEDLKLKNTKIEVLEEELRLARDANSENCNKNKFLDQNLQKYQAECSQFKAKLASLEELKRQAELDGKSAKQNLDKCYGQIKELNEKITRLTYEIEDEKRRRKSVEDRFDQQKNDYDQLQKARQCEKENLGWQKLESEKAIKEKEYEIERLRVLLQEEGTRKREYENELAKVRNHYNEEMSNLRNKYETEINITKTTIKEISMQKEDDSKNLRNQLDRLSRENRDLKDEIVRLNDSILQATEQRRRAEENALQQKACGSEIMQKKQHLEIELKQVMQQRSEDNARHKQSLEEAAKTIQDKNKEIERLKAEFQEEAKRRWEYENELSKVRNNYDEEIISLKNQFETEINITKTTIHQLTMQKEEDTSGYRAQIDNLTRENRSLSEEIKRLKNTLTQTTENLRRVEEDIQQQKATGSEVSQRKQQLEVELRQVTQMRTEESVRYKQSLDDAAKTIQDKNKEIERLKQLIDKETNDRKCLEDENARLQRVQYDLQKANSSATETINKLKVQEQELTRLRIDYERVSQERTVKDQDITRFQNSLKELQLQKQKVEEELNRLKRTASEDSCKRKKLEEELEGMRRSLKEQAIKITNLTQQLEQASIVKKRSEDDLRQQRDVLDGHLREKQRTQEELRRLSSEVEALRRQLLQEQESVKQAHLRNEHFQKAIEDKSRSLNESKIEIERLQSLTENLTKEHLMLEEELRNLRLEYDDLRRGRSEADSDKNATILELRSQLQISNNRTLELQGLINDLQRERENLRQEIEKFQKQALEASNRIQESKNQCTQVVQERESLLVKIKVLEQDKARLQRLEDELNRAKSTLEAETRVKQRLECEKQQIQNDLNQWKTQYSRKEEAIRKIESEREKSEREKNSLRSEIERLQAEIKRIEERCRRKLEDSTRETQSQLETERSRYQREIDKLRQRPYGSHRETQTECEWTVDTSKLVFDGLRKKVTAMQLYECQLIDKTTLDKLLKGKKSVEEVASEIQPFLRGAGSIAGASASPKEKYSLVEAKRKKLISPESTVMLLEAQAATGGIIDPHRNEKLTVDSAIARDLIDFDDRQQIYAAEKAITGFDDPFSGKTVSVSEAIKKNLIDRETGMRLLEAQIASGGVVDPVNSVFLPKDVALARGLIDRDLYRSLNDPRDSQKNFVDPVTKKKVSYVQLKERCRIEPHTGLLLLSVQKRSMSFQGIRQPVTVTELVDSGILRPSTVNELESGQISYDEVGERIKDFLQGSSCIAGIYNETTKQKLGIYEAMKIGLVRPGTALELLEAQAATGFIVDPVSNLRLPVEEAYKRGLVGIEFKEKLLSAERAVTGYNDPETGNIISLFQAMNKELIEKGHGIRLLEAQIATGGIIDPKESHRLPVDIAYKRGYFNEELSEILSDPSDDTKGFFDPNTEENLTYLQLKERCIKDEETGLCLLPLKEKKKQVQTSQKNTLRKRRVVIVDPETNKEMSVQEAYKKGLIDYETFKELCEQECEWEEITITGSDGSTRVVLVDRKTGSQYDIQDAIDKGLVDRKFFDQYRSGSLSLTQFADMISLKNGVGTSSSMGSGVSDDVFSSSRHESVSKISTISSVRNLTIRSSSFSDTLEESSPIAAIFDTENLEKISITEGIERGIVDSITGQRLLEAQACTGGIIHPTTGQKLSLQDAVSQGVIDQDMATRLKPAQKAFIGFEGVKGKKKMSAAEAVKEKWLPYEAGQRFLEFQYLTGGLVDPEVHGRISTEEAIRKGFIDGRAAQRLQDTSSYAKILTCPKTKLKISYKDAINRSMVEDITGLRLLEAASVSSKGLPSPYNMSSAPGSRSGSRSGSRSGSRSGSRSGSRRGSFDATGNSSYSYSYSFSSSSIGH
UniProt P06733, residues 94-434: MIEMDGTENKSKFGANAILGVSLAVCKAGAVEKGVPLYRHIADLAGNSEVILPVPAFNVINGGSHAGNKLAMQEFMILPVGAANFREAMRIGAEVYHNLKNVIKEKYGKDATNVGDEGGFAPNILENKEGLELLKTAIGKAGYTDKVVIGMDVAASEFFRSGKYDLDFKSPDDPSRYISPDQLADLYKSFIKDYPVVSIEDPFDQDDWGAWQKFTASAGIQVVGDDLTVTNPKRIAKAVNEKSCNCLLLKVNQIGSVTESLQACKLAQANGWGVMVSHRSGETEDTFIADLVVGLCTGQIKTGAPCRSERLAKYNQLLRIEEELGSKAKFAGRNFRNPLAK
UniProt Q08554: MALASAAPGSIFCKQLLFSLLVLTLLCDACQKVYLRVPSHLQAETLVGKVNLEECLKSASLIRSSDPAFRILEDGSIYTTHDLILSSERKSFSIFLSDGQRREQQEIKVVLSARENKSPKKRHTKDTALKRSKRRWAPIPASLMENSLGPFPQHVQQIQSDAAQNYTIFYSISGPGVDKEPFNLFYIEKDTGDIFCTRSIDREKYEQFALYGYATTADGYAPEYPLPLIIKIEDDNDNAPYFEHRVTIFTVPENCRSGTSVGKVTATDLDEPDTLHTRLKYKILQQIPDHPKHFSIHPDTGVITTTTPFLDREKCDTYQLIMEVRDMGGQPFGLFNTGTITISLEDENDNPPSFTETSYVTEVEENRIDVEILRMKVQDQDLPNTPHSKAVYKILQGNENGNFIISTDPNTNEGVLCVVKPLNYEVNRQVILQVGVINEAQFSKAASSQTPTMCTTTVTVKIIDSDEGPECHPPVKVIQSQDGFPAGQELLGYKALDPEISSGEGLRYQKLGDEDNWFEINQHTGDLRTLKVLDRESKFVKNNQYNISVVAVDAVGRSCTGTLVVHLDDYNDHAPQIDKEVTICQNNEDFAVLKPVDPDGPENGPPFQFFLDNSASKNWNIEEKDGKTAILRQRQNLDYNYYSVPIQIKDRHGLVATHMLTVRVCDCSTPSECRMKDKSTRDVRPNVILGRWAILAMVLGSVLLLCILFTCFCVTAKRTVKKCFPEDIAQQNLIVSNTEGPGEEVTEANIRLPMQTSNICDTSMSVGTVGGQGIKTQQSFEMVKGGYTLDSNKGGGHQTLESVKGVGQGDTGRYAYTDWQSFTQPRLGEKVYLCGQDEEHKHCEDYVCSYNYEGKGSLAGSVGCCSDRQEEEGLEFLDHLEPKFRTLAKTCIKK

This test has as its target MAF bZIP transcription factor F (MAFF) (human (endogenous in Caco-2)) (UniProt Q9ULX9). Put plainly: affinity purification with mass spectrometry; MAFF protein complex captured by a MAFF antibody, analysed by SDS-PAGE and mass spectrometry; two repeated experiments.

No constants are given. Whether binding was seen depends on the method and setting. In cells and extracts the contact can be indirect. These calls come from enrichment with a bait or labelling near it, and not all partners need be listed.

Consider “Desmoglein-1 (from UniProt Q02413 50-1049)”, for which the binding result was “binds”.

As for “Desmoplakin (from UniProt P15924 1-2871)”, the binding result is given as “binds”.

On to “c-myc promoter binding protein 1 (MBP1) (from UniProt P06733-2 1-341)”, for which the binding result is listed as “binds”.

For Desmocollin 1 (from UniProt Q08554), the binding entry was “binds”.

B1: Junction plakoglobin (protein, UniProt P14923 1-745)
chain: MEVMNLMEQPIKVTEWQQTYTYDSGIHSGANTCVPSVSSKGIMEEDEACGRQYTLKKTTTYTQGVPPSQGDLEYQMSTTARAKRVREAMCPGVSGEDSSLLLATQVEGQATNLQRLAEPSQLLKSAIVHLINYQDDAELATRALPELTKLLNDEDPVVVTKAAMIVNQLSKKEASRRALMGSPQLVAAVVRTMQNTSDLDTARCTTSILHNLSHHREGLLAIFKSGGIPALVRMLSSPVESVLFYAITTLHNLLLYQEGAKMAVRLADGLQKMVPLLNKNNPKFLAITTDCLQLLAYGNQESKLIILANGGPQALVQIMRNYSYEKLLWTTSRVLKVLSVCPSNKPAIVEAGGMQALGKHLTSNSPRLVQNCLWTLRNLSDVATKQEGLESVLKILVNQLSVDDVNVLTCATGTLSNLTCNNSKNKTLVTQNSGVEALIHAILRAGDKDDITEPAVCALRHLTSRHPEAEMAQNSVRLNYGIPAIVKLLNQPNQWPLVKATIGLIRNLALCPANHAPLQEAAVIPRLVQLLVKAHQDAQRHVAAGTQQPYTDGVRMEEIVEGCTGALHILARDPMNRMEIFRLNTIPLFVQLLYSSVENIQRVAAGVLCELAQDKEAADAIDAEGASAPLMELLHSRNEGTATYAAAVLFRISEDKNPDYRKRVSVELTNSLFKHDPAAWEAAQSMIPINEPYGDDMDATYRPMYSSDVPLDPLEMHMDMDGDYPIDTYSDGLRPPYPTADHMLA
As to B1, the binding result is “binds”.

B2: Dermcidin (protein, UniProt P81605 20-110)
chain: YDPEAASAPGSGNPCHEASAAQKENAGEDPGLARQAPKPRKQRSSLLEKGLDGAKKAVGGLGKLGKDAVEDLESVGKGAVHDVKDVLDSVL
For the molecule B2, the binding result was “binds”.
